No constants are given. Whether binding was seen depends on the method and setting. In cells and extracts the contact can be indirect. These calls come from enrichment with a bait or labelling near it, and not all partners need be listed. Tags and fused reporters may be left off the sequences shown.
Biological target: T1, Flag-tagged CD73 (L3.7 cells) (UniProt P21589)
T1 sequence: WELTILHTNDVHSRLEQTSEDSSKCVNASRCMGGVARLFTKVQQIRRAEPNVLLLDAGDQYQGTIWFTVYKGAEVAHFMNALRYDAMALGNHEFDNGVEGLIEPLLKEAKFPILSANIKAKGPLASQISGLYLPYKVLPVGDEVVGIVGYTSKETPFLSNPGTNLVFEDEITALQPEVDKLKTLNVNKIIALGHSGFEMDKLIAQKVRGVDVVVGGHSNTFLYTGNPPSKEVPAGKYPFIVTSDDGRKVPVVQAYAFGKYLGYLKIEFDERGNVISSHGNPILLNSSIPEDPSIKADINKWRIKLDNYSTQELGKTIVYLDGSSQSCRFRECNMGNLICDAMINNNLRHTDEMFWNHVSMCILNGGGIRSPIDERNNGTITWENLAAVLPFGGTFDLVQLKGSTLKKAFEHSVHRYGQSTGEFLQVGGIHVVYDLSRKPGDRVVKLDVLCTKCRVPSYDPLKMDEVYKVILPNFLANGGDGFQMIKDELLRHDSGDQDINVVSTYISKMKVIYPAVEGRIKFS
Assay: affinity purification with mass spectrometry; anti-Flag immunoprecipitation from L3.7 cells transduced with Flag-tagged CD73, LC-MS/MS (Orbitrap Elite); partners with >= 3 unique peptides

Protein sequences, listed by entry. Tags and fused reporters are not part of them.
UniProt P19474: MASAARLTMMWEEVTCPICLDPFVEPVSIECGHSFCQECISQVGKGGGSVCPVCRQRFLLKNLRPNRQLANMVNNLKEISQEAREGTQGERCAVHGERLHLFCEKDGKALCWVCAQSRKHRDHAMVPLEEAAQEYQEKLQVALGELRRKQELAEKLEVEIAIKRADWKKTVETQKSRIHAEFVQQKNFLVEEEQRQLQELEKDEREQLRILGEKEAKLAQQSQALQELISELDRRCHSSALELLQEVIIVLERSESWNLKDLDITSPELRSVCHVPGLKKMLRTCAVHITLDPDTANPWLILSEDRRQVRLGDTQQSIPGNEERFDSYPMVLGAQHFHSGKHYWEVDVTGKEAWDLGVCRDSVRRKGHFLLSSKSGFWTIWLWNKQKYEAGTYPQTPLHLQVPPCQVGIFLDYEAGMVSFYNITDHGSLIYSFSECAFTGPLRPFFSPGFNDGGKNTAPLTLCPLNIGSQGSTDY

TRIM21, endogenous (from UniProt P19474 1-475)
binding: binds

Reference: publication PMC9951332
